For assay [1], the target named is FLAG-tagged β-TrCP1 (human) (UniProt Q9Y297). In words: co-immunoprecipitation and Western blot.
Assay [2] shares this target. In words: anti-FLAG immunoprecipitation of FLAG-tagged F-box proteins from 293T cells, Western blot for USP47.

Protein sequences, listed by entry. Tags and fused reporters are not part of them. Lines headed by an entry give the natural chain unless they say otherwise; changes in a name come on top.
UniProt Q9Y297: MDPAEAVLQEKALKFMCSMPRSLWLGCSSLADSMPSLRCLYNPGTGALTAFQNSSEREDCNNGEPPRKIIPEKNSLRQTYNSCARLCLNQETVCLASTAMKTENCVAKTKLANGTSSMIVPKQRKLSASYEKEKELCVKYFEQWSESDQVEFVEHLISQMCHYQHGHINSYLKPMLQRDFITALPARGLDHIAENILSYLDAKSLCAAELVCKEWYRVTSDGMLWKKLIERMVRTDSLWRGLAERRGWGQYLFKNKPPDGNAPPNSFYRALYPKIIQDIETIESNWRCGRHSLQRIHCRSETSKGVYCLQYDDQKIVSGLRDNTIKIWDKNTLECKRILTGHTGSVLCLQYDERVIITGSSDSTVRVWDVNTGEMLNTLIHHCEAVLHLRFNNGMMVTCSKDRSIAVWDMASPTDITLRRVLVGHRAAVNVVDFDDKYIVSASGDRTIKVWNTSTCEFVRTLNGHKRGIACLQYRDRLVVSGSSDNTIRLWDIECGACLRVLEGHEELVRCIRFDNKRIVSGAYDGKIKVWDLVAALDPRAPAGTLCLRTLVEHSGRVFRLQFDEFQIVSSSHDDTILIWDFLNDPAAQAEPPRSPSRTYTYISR

These are yes or no findings as the source states them, for the method shown. For some assays here: In cells and extracts the contact can be indirect. Some entries that bind do so weakly or less than the wild type.

B1: USP47 (ubiquitin specific protease 47) (enzyme)
chain: MVPGEENQLVPKEAPLDHTSDKSLLDANFEPGKKNFLHLTDKDGEQPQILLEDSSAGEDSVHDRFIGPLPREGSGGSTSDYVSQSYSYSSILNKSETGYVGLVNQAMTCYLNSLLQTLFMTPEFRNALYKWEFEESEEDPVTSIPYQLQRLFVLLQTSKKRAIETTDVTRSFGWDSSEAWQQHDVQELCRVMFDALEQKWKQTEQADLINELYQGKLKDYVRCLECGYEGWRIDTYLDIPLVIRPYGSSQAFASVEEALHAFIQPEILDGPNQYFCERCKKKCDARKGLRFLHFPYLLTLQLKRFDFDYTTMHRIKLNDRMTFPEELDMSTFIDVEDEKSPQTESCTDSGAENEGSCHSDQMSNDFSNDDGVDEGICLETNSGTEKISKSGLEKNSLIYELFSVMVHSGSAAGGHYYACIKSFSDEQWYSFNDQHVSRITQEDIKKTHGGSSGSRGYYSSAFASSTNAYMLIYRLKDPARNAKFLEVDEYPEHIKNLVQKERELEEQEKRQREIERNTCKIKLFCLHPTKQVMMENKLEVHKDKTLKEAVEMAYKMMDLEEVIPLDCCRLVKYDEFHDYLERSYEGEEDTPMGLLLGGVKSTYMFDLLLETRKPDQVFQSYKPGEVMVKVHVVDLKAESVAAPITVRAYLNQTVTEFKQLISKAIHLPAETMRIVLERCYNDLRLLSVSSKTLKAEGFFRSNKVFVESSETLDYQMAFADSHLWKLLDRHANTIRLFVLLPEQSPVSYSKRTAYQKAGGDSGNVDDDCERVKGPVGSLKSVEAILEESTEKLKSLSLQQQQDGDNGDSSKSTETSDFENIESPLNERDSSASVDNRELEQHIQTSDPENFQSEERSDSDVNNDRSTSSVDSDILSSSHSSDTLCNADNAQIPLANGLDSHSITSSRRTKANEGKKETWDTAEEDSGTDSEYDESGKSRGEMQYMYFKAEPYAADEGSGEGHKWLMVHVDKRITLAAFKQHLEPFVGVLSSHFKVFRVYASNQEFESVRLNETLSSFSDDNKITIRLGRALKKGEYRVKVYQLLVNEQEPCKFLLDAVFAKGMTVRQSKEELIPQLREQCGLELSIDRFRLRKKTWKNPGTVFLDYHIYEEDINISSNWEVFLEVLDGVEKMKSMSQLAVLSRRWKPSEMKLDPFQEVVLESSSVDELREKLSEISGIPLDDIEFAKGRGTFPCDISVLDIHQDLDWNPKVSTLNVWPLYICDDGAVIFYRDKTEELMELTDEQRNELMKKESSRLQKTGHRVTYSPRKEKALKIYLDGAPNKDLTQD
B1: the binding entry in assay [1] and in assay [2] was “binds” throughout.
